Library screening results

The values are deposited in ChEMBL (CHEMBL3988442, “University of Dundee, Small-Polar-MMV Screening Library” (2021)).

The filed quantity is “Percent Effect” (%). The record does not define 0% and 100%; most values in the screen are far below 50% and negative numbers occur (in some assays of this library far below -100). This is an unselected part of the compounds tested. Two or more numbers in one place are separate tests of the same structure; such repeats can differ widely.

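Viability assay of Plasmodium falciparum sporozoites; the read-out is not stated. The concentration is filed as 10 mM, unlikely as a test dose, so the dose is not known. Higher reads as lower viability (inferred: compounds with an IC50 in retests scored well above the rest). Strong results were mostly tested again. Of about 34,000 compounds tested this way, about 280 (0.84%) reached 50% or more in at least one test.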

For Cc1ccc2c(c1)C(NC1CC1)CC21CCNCC1.Cl (configuration not stated) the result was 7.531%.
For COCCN(C)Cc1cc(Cl)ccc1OCC(O)CN1CCCCCC1 (configuration not stated) the result was -9.311%.
For CCc1noc(CN(CC)C(=O)c2ccc3ncsc3c2)n1 the result was -18.41% & -15.88%.
For Cn1ccnc1CN1CCN(CCOc2ccccc2F)CC1 the result was 3.501%.
For CCN(CC)S(=O)(=O)c1ccc(CCC(=O)NCc2cc(C)on2)cc1 the result was -2.331%.
For COc1cccc(C(=O)N(C)Cc2ncc(C)c(OC)c2C)c1OC the result was 0.223%.
For CN(C(=O)c1ccon1)[C@@H]1CCC[C@@H](Oc2ccccc2)[C@@H]1O the result was 1.342%.
For CCc1ncc2c(n1)CN(c1cc(NCCO)nc(N)n1)C2 the result was 9.429%.
For CCN1CCC(NC(=O)CN2CCc3c(nc(C4CC4)n3C)C2)CC1 the result was -12.43%.
For O=c1[nH]c(NCCCO)nc2c1C1(CCCC1)Cc1ccccc1-2 the result was 2.452%.
For Cc1csc(N2CCN(C(=O)NCCNc3ncccn3)CC2)n1 the result was 0.1932%.
For CCOCCCC(=O)Nc1ccc(OCc2noc(C3CC3)n2)cc1 the result was -0.7684%.
For Cc1[nH]c2c(C)ccc(C)c2c1CC(=O)NC1CCCNC1=O (configuration not stated) the result was 1.298%.
For Cc1nc(C2CCNC2)nc2c1CCC(=O)N2CC(C)C.Cl (configuration not stated) the result was 7.316%.
For CCc1noc(C(C)N2CCN(Cc3nnc(C4CC4)o3)CC2)n1 (configuration not stated) the result was 1.471%.
For Cn1ccc(C(=O)N2CCOC(c3ccccc3)C2)cc1=O (configuration not stated) the result was -8.426% & -3.608%.
For O=C(C(CNCc1ccsc1)c1ccccc1)N1CCOCC1 (configuration not stated) the result was 5.453%.
For CCOc1ccc(CN2CCN(C(=O)c3cc(C4CC4)[nH]n3)CC2)cc1 the result was 5.919%.
For NC(=O)c1ccc(C2CN(Cc3ccc(F)cc3)CCO2)nc1 (configuration not stated) the result was 9.299%.
For Cc1nccn1CCCC(=O)N1CCC(N(C)c2cccnn2)CC1 the result was -1.718%.
For CCOCc1ncn2c1CN(C(=O)Nc1ccccc1)CC2 the result was -3.133%.
For O=C(NC1CCN(Cc2cccc3c2OCCO3)CC1)c1cccs1 the result was 8.883%.
For O=C(Nc1ccccn1)C1CC(=O)N(Cc2ccccn2)C1 (configuration not stated) the result was 18.6%.
For COc1c(C2CCCN2C(=O)c2ccnc(N(C)C)c2)c(C)nn1C (configuration not stated) the result was -15.03%.
For CCCN(CCc1ccccn1)C(=O)Cn1cc(C)cn1 the result was 0.3581%.
For Cc1ccc(C(=O)NC2CCN(Cc3cccc4c3OCCO4)CC2)s1 the result was 14.2%.
For CC(C)(C)C(=O)N1CCCC1c1cc(CO)[nH]n1 (configuration not stated) the result was 10.01%.
For CC[C@@H]1N(CC2CCC2)CCC[C@]12CCC(=O)N2Cc1ccncc1 the result was 5.692%.
For NC(=O)CN1CCOCC(Cc2cccc(F)c2)C1 (configuration not stated) the result was 6.4%.
For CCCc1noc(CN(C)C(=O)C2COc3ccccc3C2)n1 (configuration not stated) the result was 6.325%.
For O=C(O)C(F)(F)F.[H][C@@]12CCN(C(=O)CC(C)C)CC[C@]1(C(=O)N1CCOCC1)CCN2CC the result was -15.4%.
For CN(C)CCN1CCC2(CC1)CN(c1cccnc1)C(=O)CO2 the result was -4.343%.
For CCC(CN1CCCC1)NC(=O)Cc1c(C)[nH]c2c(C)cc(C)cc12.O=C(O)CC(O)(CC(=O)O)C(=O)O (configuration not stated) the result was -13.12%.
For O=C(c1ccncc1)N1Cc2ccccc2OC2(CCOCC2)C1 the result was -0.1185%.
For Cc1cc(C)n(CC2CN(CCOc3ccccc3F)CCO2)n1 (configuration not stated) the result was 11.76%.
For O=C(NCCCc1ccco1)c1cnc(N2CCOCC2)nc1 the result was -16.08%.
For OC(COCc1ccc(Cl)cc1)CN1CCC(c2ccn[nH]2)CC1 (configuration not stated) the result was 3.536%.
For CCn1ncc(CN2CCc3nc(-c4cccnc4)nc(O)c3C2)c1C the result was 0.9814%.
For Cc1cc(C)nc(N2CC[C@H](Oc3ccccc3F)[C@@H](O)CC2)n1 the result was 4.491%.
For Cc1nn(C)c(C)c1OCC(=O)NCC(O)c1ccco1 (configuration not stated) the result was 2.519%.
For [H][C@@]12CNC[C@@]1([H])N(CC(C)C)C(=O)CO2 the result was 7.24%.
For O=C1CC(c2cccnc2)c2c(c(C(=O)O)cn2-c2ccccc2)N1 (configuration not stated) the result was -5.263%.
For CCC(C(=O)NC)N(c1cccc(C)c1)S(C)(=O)=O (configuration not stated) the result was 9.871%.
For CC(=O)N(Cc1noc(C)n1)C1CCN(Cc2cc(C)on2)C1 (configuration not stated) the result was -10.4%.
For [H][C@@]12C[C@H](C(=O)Nc3cccnc3)[C@@]([H])(CN(CC(C)C)C1)O2 the result was 13.94%.
For CC(C)c1ncncc1C(=O)NCCN1CCCS1(=O)=O the result was -7.085%.
For Cc1ccccc1C(NC(=O)NCC1(O)CCC1)C1CC1 (configuration not stated) the result was -6.649%.
For CN(C)C(=O)N1CCN(Cc2nnc(C(C)(C)C)o2)CC1 the result was -1.059%.

The last 4 entries again:

- [H][C@@]12C[C@H](C(=O)Nc3cccnc3)[C@@]([H])(CN(CC(C)C)C1)O2 : 13.94%
- CC(C)c1ncncc1C(=O)NCCN1CCCS1(=O)=O : -7.085%
- Cc1ccccc1C(NC(=O)NCC1(O)CCC1)C1CC1 (configuration not stated) : -6.649%
- CN(C)C(=O)N1CCN(Cc2nnc(C(C)(C)C)o2)CC1 : -1.059%